In patent US4758312A, “Method for in situ corrosion detection using electrochemically active compounds” (Nalco Chemical Company, priority 1987, dated 1988):

Experiments:
[1] = Commercial tetrazolium compounds, detection of iron corrosion (Example 4); settings: 0.1 percent solution, one percent sodium chloride
[2] = Redox type indicators screened for detection of iron corrosion in water (Example 1); settings: 0.1 percent indicator, one percent sodium chloride, room temperature

Row | Structure (SMILES) | Initial color [1] | Final color ([1]; precipitate on the metal surface) | Final color [2] | Initial color [2]
1 | c1ccc(-c2nn(-c3ccccc3)[n+](-c3ccc(-c4ccc(-[n+]5nc(-c6ccccc6)nn5-c5ccccc5)cc4)cc3)n2)cc1 [Compound 8 (Table 6), 2,2',5,5'-tetraphenyl-3,3'(p-diphenylene)ditetrazolium chloride] | colorless | blue | – | –
2 | Cc1cc2nc3ccc(N(C)C)cc3nc2cc1N [Neutral Red, neutral red] | – | – | yellow | red
3 | O=c1ccc2[n+]([O-])c3ccc(O)cc3oc-2c1 [Resazurin, resazurin] | – | – | red | blue
